# Assay results reported in PubChem BioAssay AID743317 (Broad Institute, 2014).
# The chains behind the UniProt entries cited, without tags or fusion partners. Where a name states a change or a piece, a line headed by the entry shows the natural chain unless it says otherwise.
# UniProt Q9NZ08: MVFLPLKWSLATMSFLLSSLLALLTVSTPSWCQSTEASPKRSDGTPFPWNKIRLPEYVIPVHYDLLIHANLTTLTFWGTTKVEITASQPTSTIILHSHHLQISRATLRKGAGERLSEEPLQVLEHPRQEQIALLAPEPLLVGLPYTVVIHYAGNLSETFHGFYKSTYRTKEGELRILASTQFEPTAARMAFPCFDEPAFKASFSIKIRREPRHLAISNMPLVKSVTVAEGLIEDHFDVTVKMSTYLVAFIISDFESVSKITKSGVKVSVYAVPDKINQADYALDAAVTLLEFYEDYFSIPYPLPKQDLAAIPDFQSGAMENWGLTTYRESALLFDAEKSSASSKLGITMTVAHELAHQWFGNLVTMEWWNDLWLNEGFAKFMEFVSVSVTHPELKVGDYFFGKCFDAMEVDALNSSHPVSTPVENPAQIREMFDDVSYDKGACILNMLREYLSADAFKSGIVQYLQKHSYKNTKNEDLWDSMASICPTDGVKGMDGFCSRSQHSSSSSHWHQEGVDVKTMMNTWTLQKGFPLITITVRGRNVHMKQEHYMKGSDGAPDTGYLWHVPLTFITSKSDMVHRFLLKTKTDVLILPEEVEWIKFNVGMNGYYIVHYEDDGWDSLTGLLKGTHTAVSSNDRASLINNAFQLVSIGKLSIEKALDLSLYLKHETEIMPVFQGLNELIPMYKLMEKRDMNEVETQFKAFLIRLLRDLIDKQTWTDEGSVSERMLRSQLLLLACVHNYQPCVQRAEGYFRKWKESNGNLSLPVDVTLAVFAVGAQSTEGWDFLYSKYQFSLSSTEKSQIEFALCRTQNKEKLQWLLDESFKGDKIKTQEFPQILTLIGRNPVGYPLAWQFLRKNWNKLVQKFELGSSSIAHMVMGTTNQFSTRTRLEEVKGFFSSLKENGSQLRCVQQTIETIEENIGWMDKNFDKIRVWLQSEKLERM
# The inconclusive results got no clear call from the source; some entries with a clear call stand among them for comparison. Activity calls are given as the source filed them.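 How the source made its calls: active means fitted curve reaches 40% activation at or below the top valid dose, and every replicate test is called active; inconclusive means replicate tests disagree, some active and some inactive; inactive means all replicate tests inactive, including activity in the wrong direction.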
# Biological target: Endoplasmic reticulum aminopeptidase 1 (Homo sapiens) (UniProt Q9NZ08)
# Experiment: ERAP1 aminopeptidase activity change, dose response, biochemical, fluorescence, cherry-pick (AID 743317)
# Details: ERAP1 enzyme, Leu-AMC fluorescence, 60 min; at 11 µM (top of the series) unless noted
row,SMILES,activity increase (activation)
1,O=C([C@@H]1[C@@H](CO)[C@@H]2Cn3c(ccc(/C=C/c4ccccc4)c3=O)[C@@H]2N1CC1CC1)N1CCOCC1,inconclusive: -28.9%
2,COCCCn1c(C(=O)N2CCOCC2)cc2c(=O)n3ccccc3nc21,inactive: -46.9%
3,CCC(=O)N1[C@@H](CO)[C@@H](c2ccccc2)C12CN(Cc1cccnc1)C2,inconclusive: 43%
4,CC1CCN(Cc2cc(=O)oc3cc(O)c(Cl)cc23)CC1,inactive: -36.5% [at 5.6 µM]
5,O=C(NCCc1ccncc1)[C@@H]1N[C@@H]2c3ccc(/C=C/c4ccccc4)c(=O)n3C[C@@H]2[C@H]1CO,inconclusive: -28.9%
6,Cc1cc(=O)oc2c(CN3CCN(CCO)CC3)c(O)ccc12,inactive: -61.9%
7,COc1ccc(C#Cc2cccc(-c3nc(C(=O)N4CCN(C)CC4)cc4c3[C@@H](CCO)N(S(=O)C(C)(C)C)C4)c2)cc1OC (some centres undefined),inconclusive: 37.6%
8,CCOC(=O)C[n+]1ccc2c([nH]c3ccccc32)c1C,inactive: -38.3%
9,COC(=O)[C@H]1[C@H](CO)[C@H]2Cn3c(ccc(C4=CCCC4)c3=O)[C@H]2N1C(=O)C1CC1,inconclusive: 33.1%
10,CCC(=O)N1[C@H](C(=O)OC)[C@@H](CO)[C@@H]2Cn3c(ccc(/C=C/c4ccccc4)c3=O)[C@@H]21,inconclusive: -32.6%
11,O=C(c1ccccc1)N1CC(=O)N2[C@H](CO)[C@@H](c3ccc(-c4ccccc4)cc3)[C@H]2C1,inconclusive: 33%
12,COc1ccccc1CN1CC[C@@H]2[C@H](CO)Nc3ccc(-c4cccc(C(=O)N(C)C)c4)cc3[C@@H]21,inconclusive: 41.8% [at 10 µM]
13,COc1ccc(-c2cc3ccc(O)cc3oc2=O)cc1,inactive: -75.7%
14,CCc1cc(=O)oc2c(CN3CCN(C)CC3)c(O)ccc12,inactive: -65.3%
15,COc1ccc2c3c([nH]c2c1)[C@@H](CO)N(Cc1cc(F)ccc1F)CC31CN(C(=O)CN(C)C)C1,inconclusive: 35.7%
16,C[C@@H]1CN([C@H](C)CO)S(=O)(=O)c2ccc(-c3ccccc3)cc2O[C@H]1CN(C)S(C)(=O)=O,inconclusive: 40.4%
17,CCNC(=O)[C@H]1[C@H](CO)[C@H]2Cn3c(ccc(/C=C/c4ccccc4)c3=O)[C@@H]1N2,inconclusive: -38%
18,CC1CCCC(C)N1CCCNC(=O)c1cc2c(s1)-c1ccccc1OC2 (centres undefined),inactive: -45.6%
19,COc1ccc2c3c([nH]c2c1)[C@@H](CO)N(Cc1ccccc1)CC31CN(C)C1,inconclusive: -25.8%

# A different layout for two compounds above.
row	SMILES	activity increase (activation)
3	CCC(=O)N1[C@@H](CO)[C@@H](c2ccccc2)C12CN(Cc1cccnc1)C2	inconclusive: 43%
4	CC1CCN(Cc2cc(=O)oc3cc(O)c(Cl)cc23)CC1	inactive: -36.5% [at 5.6 µM]
